Reference: PMC9066768
Results are given in words; binding and its absence hold for the method and conditions named. Binding seen in cells or lysates may run through a third protein. Some binding calls cover weakened binding; strength is not graded here. Where a sequence is shown, tags or fusion partners need not be part of it.

Target: HA-p53 (UniProt P04637)
Assay: co-IP; 293T cells co-transfected with Flag-RND1 and HA-p53 for 48 h; lysed in IP buffer (50 mM Tris-Cl pH 8.0, 0.5 mM EDTA, 150 mM NaCl, 1% NP-40); IP with anti-Flag, anti-HA or IgG and Protein G Agarose overnight at 4 °C; blotted with anti-RND1 and anti-p53

B1: Flag-RND1 (Rho family GTPase 1) (protein, UniProt Q92730 1-232)
chain: MKERRAPQPVVARCKLVLVGDVQCGKTAMLQVLAKDCYPETYVPTVFENYTACLETEEQRVELSLWDTSGSPYYDNVRPLCYSDSDAVLLCFDISRPETVDSALKKWRTEILDYCPSTRVLLIGCKTDLRTDLSTLMELSHQKQAPISYEQGCAIAKQLGAEIYLEGSAFTSEKSIHSIFRTASMLCLNKPSPLPQKSPVRSLSKRLLHLPSRSELISSTFKKEKAKSCSIM
  binding: binds
